# System: patients with schizophrenia
# Experiment: Antipsychotic effectiveness after use of Roluperidone (time to symptom improvement)
# Type: in vivo, human
# Details: MIN-101C03 and MIN-101C07
substance,measurement,setting,value
"1H-Isoindol-1-one,2-[ [1-[2-(4-fluorophenyl)-2-oxoethyl]-4-piperidinyl]methyl]-2,3-dihydro-, hydrochloride, hydrate (1:1:2) [Roluperidone]",Median time to symptom improvement after stopping study drug and starting an antipsychotic,patients on 32 mg Roluperidone in DB,12 days
same,Median time to symptom improvement after stopping study drug and starting an antipsychotic,patients on 64 mg Roluperidone in DB,17 days
